Laboratory results: publication PMC7340778
These are yes or no findings as the source states them, for the method shown. Some binding calls cover weakened binding; strength is not graded here. Tags and fused reporters may be left off the sequences shown.

Protein sequences, listed by entry. Tags and fused reporters are not part of them. Residues count along the entry.
UniProt P19438, residues 42-201: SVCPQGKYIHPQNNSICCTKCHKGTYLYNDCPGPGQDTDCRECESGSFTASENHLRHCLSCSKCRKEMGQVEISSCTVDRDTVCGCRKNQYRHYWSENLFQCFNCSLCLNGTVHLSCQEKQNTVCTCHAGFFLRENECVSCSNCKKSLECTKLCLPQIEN

Molecular target: soluble extracellular fragment of TNFR1 (sTNFR1) (human) (UniProt P19438)
Assay: pull-down; affinity column: sTNFR1 coupled to CNBr-Sepharose; biotinylated aAb loaded, column washed with PBS, then Tag7 in PBS added in 100-fold excess over aAb; TNFR1-bound fraction blotted with anti-Tag7 antibodies; both purified

binding: binds
B1: Tag7 (PGLYRP1) (protein, UniProt O75594 22-196)
chain: QETEDPACCSPIVPRNEWKALASECAQHLSLPLRYVVVSHTAGSSCNTPASCQQQARNVQHYHMKTLGWCDVGYNFLIGEDGLVYEGRGWNFTGAHSGHLWNPMSIGISFMGNYMDRVPTPQAIRAAQGLLACGVAQGALRSNYVLKGHRDVQRTLSPGNQLYHLIQNWPHYRSP
